No constants are given. Whether binding was seen depends on the method and setting. In cells and extracts the contact can be indirect. Here binding means that the protein was enriched with, or labelled near, the bait; the list need not be complete. Tags and fused reporters may be left off the sequences shown.
Target: T1, GST-MSMEG_2731 (M. smegmatis) (UniProt A0QVX6)
T1 sequence: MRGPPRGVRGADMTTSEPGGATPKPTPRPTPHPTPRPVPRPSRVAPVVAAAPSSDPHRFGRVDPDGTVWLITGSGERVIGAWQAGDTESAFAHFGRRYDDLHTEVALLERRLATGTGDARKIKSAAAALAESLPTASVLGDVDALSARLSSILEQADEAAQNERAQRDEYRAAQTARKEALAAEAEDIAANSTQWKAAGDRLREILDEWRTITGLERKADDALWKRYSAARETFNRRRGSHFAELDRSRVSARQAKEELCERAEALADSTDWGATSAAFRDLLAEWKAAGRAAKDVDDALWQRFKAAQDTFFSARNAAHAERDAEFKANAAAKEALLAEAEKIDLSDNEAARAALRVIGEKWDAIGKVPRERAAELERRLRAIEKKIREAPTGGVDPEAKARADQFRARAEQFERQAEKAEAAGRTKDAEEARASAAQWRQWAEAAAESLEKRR
Assay: affinity purification with mass spectrometry; purified GST-MSMEG_2731 or GST incubated with M. smegmatis cell lysate 4 h in 50 mM Tris-HCl pH 7.4, 150 mM NaCl, 1 mM EDTA, 0.1% Triton X-100; glutathione-Sepharose 4B; bands excised, LC-MS/MS; only the target purified

Amino acid sequences for entries named in this document (tags omitted).
UniProt A0QYY6: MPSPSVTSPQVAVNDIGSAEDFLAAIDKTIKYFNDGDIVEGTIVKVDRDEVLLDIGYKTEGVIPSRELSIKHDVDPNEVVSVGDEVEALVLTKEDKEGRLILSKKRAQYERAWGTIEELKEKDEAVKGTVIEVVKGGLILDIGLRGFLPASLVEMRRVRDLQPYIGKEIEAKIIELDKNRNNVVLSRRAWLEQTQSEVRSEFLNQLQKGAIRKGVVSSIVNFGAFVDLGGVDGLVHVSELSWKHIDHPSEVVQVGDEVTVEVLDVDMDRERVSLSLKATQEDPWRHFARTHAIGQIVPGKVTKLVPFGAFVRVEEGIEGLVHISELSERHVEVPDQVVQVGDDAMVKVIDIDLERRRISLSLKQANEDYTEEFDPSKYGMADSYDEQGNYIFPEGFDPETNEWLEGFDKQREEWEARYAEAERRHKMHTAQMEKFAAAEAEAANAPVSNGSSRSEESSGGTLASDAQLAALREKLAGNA

Row | binding | Substance
1 | binds | 30S ribosomal protein S1 [Mycobacterium smegmatis str. MC2 155], endogenous (from UniProt A0QYY6 1-479)
2 | binds | translation initiation factor IF-2

Reference: PMC3348880, “MSMEG_2731, an Uncharacterized Nucleic Acid Binding Protein from Mycobacterium smegmatis, Physically Interacts with RPS1” (PLoS ONE, 2012)
